Measurements reported in PMC7985304.
These are yes or no findings as the source states them, for the method shown. Some results given as binding are weak or reduced against the parent protein; the word gives no strength. Sequences can lack the tags named with a protein.

Sequences of proteins named here, by UniProt entry; tags and fusion partners are left off.
UniProt P61957: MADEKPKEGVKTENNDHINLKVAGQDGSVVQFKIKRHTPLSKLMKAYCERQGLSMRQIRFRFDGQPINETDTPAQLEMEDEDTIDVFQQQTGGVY

Molecular target: GST-Sumo2 fusion protein (UniProt P61957)
Assay: pull-down; GST-Sumo2 kept bound to Glutathione Sepharose 4B; purified Flag-tagged Dcp1a incubated; western blot; both purified

B1: Flag-tagged wild-type Dcp1a, purified protein (protein, UniProt Q91YD3 1-602)
chain: MALSCSTVRPRRRGSALRSKMELLSRAEQEMSLAALKQHDPYITSIADLTGQVALYTFCPKANQWEKTDIEGTLFVYRRSASPYHGFTIVNRLNMHNLVEPVNKDLEFQLHEPFLLYRNASLSIYSIWFYDKNDCHRIAKLMADVVEEETRRSQQAARDKQSPSQANGCSDQRPIDILEMLSRAKDEYERNQMGGSNISSPGLQPSTQLSNLGSTETLEETPSGSQDKSAPSGHKHLTVEELFGTSLPKEQPTAMGLESEDTDKLLGDASQKEPSSFLPFPFEQSGGAPQSENLGIHSAAHHTVQPEVSTPVLITPASIAQSGDKHPPSYTLPLSPVLSPTLPAEAPTTQVPHLPRNSTMIQAVKTTPRQKSPLLNQPVPELSHSSLVASQSPFRAPVSLANPAGTALPSVDLLQKLRLTPQHDQIQAQPLGKGTMAPSFSSAAGQLATPESFIEPSSKTAAARAAVSASLSNMVLAPTLQSMQQNQDPEVFSQPKVLPSAIPIAGSPLVPATTTAVSSVLLSPSVFQQTVPRAADLERKASSPSPLTVGTAESQRKPSIILSKSQLQDTLIHLIKNDSSFLSTLHAVYLQVLTKNKDNHNL
  binding: binds
